Measurements published in patent publication EP2167056B1, “TRANSDERMAL AND TRANSMUCOSAL DRUG DELIVERY ENHANCERS” (priority 2007, dated 2008).

Test: Franz diffusion cell permeation of hydromorphone hydrochloride with delmopinol analogues (Example 2)
Details: 5 % hydromorphone hydrochloride, no enhancing agent added
Protocol: The permeation test was carried out using a Franz diffusion cell with a diffusion area of 1.8 cm^2 as in Example 1. […] Penetration with or without addition of different delmopinol analogues was studied in 5 parallel tests (3 cells per test).

CN1CC[C@]23c4c5ccc(O)c4O[C@H]2C(=O)CC[C@H]3[C@H]1C5.Cl [hydromorphone hydrochloride, reference compound]
amount of hydromorphone hydrochloride found on the receptor side: no detectable amount
